Article PMC8203837, “Optogenetically-induced multimerization of the dopamine transporter increases uptake and trafficking to the plasma membrane” (The Journal of Biological Chemistry, 2021)
These are yes or no findings as the source states them, for the method shown. Binding seen in cells or lysates may run through a third protein. Some entries that bind do so weakly or less than the wild type.

Sequences of proteins named here, by UniProt entry; tags and fusion partners are left off.
UniProt Q01959: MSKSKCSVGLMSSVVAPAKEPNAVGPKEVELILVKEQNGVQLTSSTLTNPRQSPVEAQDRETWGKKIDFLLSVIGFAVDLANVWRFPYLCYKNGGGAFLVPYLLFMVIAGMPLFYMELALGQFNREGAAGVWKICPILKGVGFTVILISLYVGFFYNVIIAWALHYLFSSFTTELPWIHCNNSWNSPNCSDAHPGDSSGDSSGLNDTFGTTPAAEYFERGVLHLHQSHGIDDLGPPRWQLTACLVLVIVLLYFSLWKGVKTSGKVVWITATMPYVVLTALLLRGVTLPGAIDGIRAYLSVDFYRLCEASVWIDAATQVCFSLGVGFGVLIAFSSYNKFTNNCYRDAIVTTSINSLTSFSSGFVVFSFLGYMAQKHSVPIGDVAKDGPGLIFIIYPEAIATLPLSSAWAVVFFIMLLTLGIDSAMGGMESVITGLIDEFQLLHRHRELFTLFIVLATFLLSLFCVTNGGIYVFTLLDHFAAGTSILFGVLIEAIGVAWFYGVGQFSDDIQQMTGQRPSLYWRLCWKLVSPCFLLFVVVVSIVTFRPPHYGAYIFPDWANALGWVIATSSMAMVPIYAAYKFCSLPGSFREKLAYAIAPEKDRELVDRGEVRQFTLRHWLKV

Molecular target: YFP–DAT (dopamine transporter with N-terminal YFP) (UniProt Q01959)
Experiment: FRET or BRET; live-cell acceptor-photobleaching FRET at the plasma membrane, HEK293 cells stably expressing YFP–DAT and transfected with Cry2–DAT or CFP–DAT; vehicle or 10 μM METH 2 min, blue light (488 nm, 4% laser output) as indicated

- binding: binds
Substance: CFP–DAT (from UniProt Q01959 1-620)
